Values quoted from earlier work, collected in patent US20120027687A1, “FATTY ACID PROTEIN KINASE C ACTIVATORS AND ANTICOAGULANT FOR THE TREATMENT OF STROKE” (priority 2010, published 2012).
For at least one compound, name, drawing or mass did not settle the structure.

Target: PKC
Settings: read-out: Kd of PKC activation; cited from earlier work

SMILES: CC(C)=CCC/C(C)=C/CC/C(C)=C/CSc1nc[nH]n1 [Farnesyl thiotriazole]
- Kd: 2500 nM
